# From patent publication US20100056516A1 (priority 2006, published 2010)
# Some entries share one result that the patent states for a list of compounds.
# Molecular target: HIV-1 reverse transcriptase (RNase H) (Human immunodeficiency virus type 1 group M subtype B, UniProt P04585)
# Assay: ASH assay: RNase H mediated RNA cleavage (ECL format, BioVeris M384)
# Format: biochemical
# Conditions: 5'-ruthenium oligo, BioVeris M384 analyzer
# Procedure: Potency of a substance as an RNase H inhibitors can be determined by measuring its ability prevent RNase H catalyzed cleavage of the RNA strand in a RNA/DNA hybrid duplex substrate. RNase H activity is measured using a substrate generated by annealing the oligoribo-nucleotide 5′-rCrCrUrCrUrCrArArArArArCrArGrGrArGrCrArGrArArArGrArCrArArG (SEQ ID NO:1) to the oligodeoxyribonucleotide 5′-Biotin-[…] (SEQ ID NO:2). […] (SEQ ID NO:3). The resulting double-stranded duplex DNA product is quantitated in an ALPHA screen format using [streptavidin- and anti-fluorescein-coated beads (Packard Bioscience) following the manufacturer's guidelines and reading on a Fusion AlphaScreen instrument. Alternatively, the released 5′-Biotinylated DNA is annealed to a complementary oligodeoxyribonucleotide: 5′-ruthenium-[…] (SEQ ID NO:3). The resulting double-stranded duplex DNA product is quantitated in an ECL screen format using Dynabeads M280 coated with streptavidin (BioVeris Corporation) following the manufacturer's guidelines and reading on a BioVeris M384 Analyzer.
row,SMILES,IC50
1,"CCOC(=O)c1c(O)c2cc(-c3cccc(CN4CCOCC4)c3)cnc2n(O)c1=O [Example 57, Ethyl 1,4-dihydroxy-6-[3-(morpholin-4-ylmethyl)phenyl]-2-oxo-1,2-dihydro-1,8-naphthyridine-3-carboxylate]",< 100 µM
2,"O=C(NCCc1ccccc1)c1ccc2c(c1)CN(c1cc(=O)n(O)c3ncccc13)CC2 [Example 260, 4-[7-(phenylethylaminocarbonyl)-3,4-dihydroisoquinolin-2(1H)-yl]-1-hydroxy-1,8-naphthyridin-2(1H)-one]",< 100 µM
3,"CCOC(=O)c1c(O)c2cc(-c3cccc(OC)c3)cnc2n(O)c1=O [Example 62, Ethyl 1,4-dihydroxy-6-(3-methoxyphenyl)-2-oxo-1,2-dihydro-1,8-naphthyridine-3-carboxylate]",< 100 µM
4,"CC(=O)N1CCN(Cc2cccc(-c3cc(=O)n(O)c4ncccc34)c2)CC1 [Example 213, 4-{3-[(4-acetyl-1-piperazinyl)methyl]phenyl}-1-hydroxy-1,8-naphthyridin-2(1H-one)]",< 100 µM
5,"CC(=O)c1cccc(-c2cccc(-c3cc(=O)n(O)c4ncccc34)c2)c1 [Example 191, 4-(3′-acetylbiphenyl-3-yl)-1-hydroxy-1,8-naphthyridin-2(1H)-one]",< 100 µM
6,"CN1CCN(Cc2cccc(CNc3cc(=O)n(O)c4ncccc34)c2)CC1 [Example 150, 1-hydroxy-4-({3-[(4-methyl-1-piperazinyl)methyl]benzyl}amino)-1,8-naphthyridin-2(1H-one)]",< 100 µM
7,"O=c1cc(NC(CN2CCOCC2)c2ccccc2)c2cccnc2n1O (centres unmarked) [Example 107, 1-Hydroxy-4-[(2-morpholin-4-yl-1-phenylethyl)amino]-1,8-naphthyridin-2(1H)-one]",< 100 µM
8,"Nc1ccc(-c2ccc3c(c2)CN(c2cc(=O)n(O)c4ncccc24)CC3)cc1 [Example 254, 4-[7-(4-aminophenyl)-3,4-dihydroisoquinolin-2(1H)-yl]-1-hydroxy-1,8-naphthyridin-2(1H)-one]",< 100 µM
9,"CN(C)CCCN1CCN(Cc2cccc(-c3cc(=O)n(O)c4ncccc34)c2)CC1 [Example 212, 4-[3-({4-[3-(dimethylamino)propyl]-1-piperazinyl}methyl)phenyl]-1-hydroxy-1,8-naphthyridin-2(1H-one)]",< 100 µM
10,"COc1ccc(-c2c(O)c3cccnc3n(O)c2=O)cc1 [Example 31, 1,4-Dihydroxy-3-(4-methoxyphenyl)-1,8-naphthyridin-2(1H)-one]",< 100 µM
11,O=c1cc(NCc2ccc(F)cc2)c2cccnc2n1O [Example 152],< 100 µM
12,"O=c1c(-c2ccccc2)c(O)c2cccnc2n1O [Example 30, 1,4-Dihydroxy-3-phenyl-1,8-naphthyridin-2-(1H)-one]",< 100 µM
13,"O=C1N[C@H]2CCCC[C@@H]2Nc2c1c(=O)n(O)c1ncccc21 [Example 169, (8aS, 12aS)-5-hydroxy-8,8a,9,10,11,12,12a,13-octahydro-5H-[1,8]naphthyridino[4,3-b][1,5]benzodiazepine-6,7-dione]",< 100 µM
14,"O=c1cc(NCCc2ccccc2)c2cccnc2n1O [Example 132, 1-hydroxy-4-[(2-phenylethyl)amino]-1,8-naphthyridin-2(1H)-one]",< 100 µM
15,"NCc1cccc(-c2cncc(-c3cc(=O)n(O)c4ncccc34)c2)c1 [Example 190, 4-{5-[3-(aminomethyl)phenyl]pyridin-3-yl}-1-hydroxy-1,8-naphthyridin-2(1H)one]",< 100 µM
16,"O=c1c(Cc2ccccc2)c(O)c2cc(-c3ccccc3)cnc2n1O [Example 67, 3-Benzyl-1,4-dihydroxy-6-phenyl-1,8-naphthyridin-2(1H)-one]",< 100 µM

row,SMILES,IC50
1,"Nc1cccc(-c2ccc3c(c2)CN(c2cc(=O)n(O)c4ncccc24)CC3)c1 [Example 251, 4-[7-(3-aminophenyl)-3,4-dihydroisoquinolin-2(1H)-yl]-1-hydroxy-1,8-naphthyridin-2(1H)-one]",< 100 µM
2,"O=c1c(-c2ccccc2)c(O)c2cc(-c3ccccc3-n3cccn3)cnc2n1O [Example 53, 1,4-Dihydroxy-3-phenyl-6-[2-(1H-pyrazol-1-yl)phenyl]-1,8-naphthyridin-2(1H)-one]",< 100 µM
3,"CN1C(=O)c2c(c3cccnc3n(O)c2=O)NC1c1cccc(CN2CCOCC2)c1 (centres unmarked) [Example 219, 6-Hydroxy-3-methyl-2-[3-(morpholin-4-ylmethyl)phenyl]-2,3-dihydropyrimido[5,4-c]-1,8-naphthyridine-4,5(1H, 6H)dione]",< 100 µM
4,"CCOC(=O)c1c(O)c2cc(Br)cnc2n(O)c1=O [Example 3, Ethyl 6-bromo-1,4-dihydroxy-2-oxo-1,2-dihydro-1,8-naphthyridine-3-carboxylate]",< 100 µM
5,"O=c1cc(Cc2ccc(CCc3ccc(F)cc3F)cc2)c2cccnc2n1O [Example 236, 4-{4-[2-(2,4-difluorophenyl)ethyl]benzyl}-1-hydroxy-1,8-naphthyridin-2(1H)-one]",< 100 µM
6,"COc1cccc(-c2c(O)c3cccnc3n(O)c2=O)c1 [Example 40, 1,4-Dihydroxy-3-(3-methoxyphenyl)-1,8-naphthyridin-2(1H)-one]",< 100 µM
7,"CCOC(=O)c1c(O)c2c(Cc3cccc(-c4cccc(CN)c4)c3)ccnc2n(O)c1=O [Example 249, ethyl 5-{[3′-(aminomethyl)biphenyl-3-yl]methyl}-1,4-dihydroxy-2-oxo-1,2-dihydro-1,8-naphthyridine-3-carboxylate]",< 100 µM
8,"O=C(c1c(O)c2cccnc2n(O)c1=O)N1CCCCC1 [Example 8, 1,4-Dihydroxy-3-(piperidin-1-ylcarbonyl)-1,8-naphthyridin-2(1H)-one]",< 100 µM
9,"NCc1ccc(-c2cccc(-c3ccnc4c3c(O)cc(=O)n4O)c2)cc1 [Example 228, 5-[4′-(aminomethyl)biphenyl-3-yl]-1,4-dihydroxy-1,8-naphthyridin-2(1H)-one]",< 100 µM
10,"O=c1cc(Nc2ccccc2)c2cccnc2n1O [Example 103, 4-Anilino-1-hydroxy-1,8-naphthyridin-2(1H)-one]",< 100 µM
11,"CCOC(=O)c1c(-c2cc(CCc3ccccc3F)cc(-c3ccc(CN)cc3)c2)c2cccnc2n(O)c1=O [Example 263, ethyl 4-[4′-aminomethyl-5-(2-fluorophenethyl)biphenyl-3-yl]1-hydroxy-2-oxo-1,2-dihydro-1,8-naphthyridine-3-carboxylate]",< 100 µM
12,Cc1cc(C)n(-c2cccc(-c3cc(=O)n(O)c4ncccc34)c2)n1 [Example 176],< 100 µM
13,"Cc1n[nH]c2c1c(=O)n(O)c1ncccc21 [Example 94, 5-Hydroxy-3-methyl-1,5-dihydro-4H-pyrazolo[4,3-c]-1,8-naphthyridin-4-one]",< 100 µM
14,"NCc1ccc(-c2ccc(Cc3cc(=O)n(O)c4ncccc34)cc2)cc1 [Example 235, 4-{[4′-(aminomethyl)biphenyl-4-yl]methyl}-1-hydroxy-1,8-naphthyridin-2(1H)-one]",< 100 µM
15,"O=C(CN1CCN(Cc2cccc(-c3cc(=O)n(O)c4ncccc34)c2)CC1)N1CCOCC1 [Example 211, 1-hydroxy-4-[3-({4-[2-(4-morpholinyl)-2-oxoethyl]-1-piperazinyl}methyl)phenyl]-1,8-naphthyridin-2(1H-one)]",< 100 µM
16,"CCOC(=O)c1c(N[C@@H](CO)c2ccccc2)c2cccnc2n(O)c1=O [Example 129, Ethyl 1-hydroxy-4-{[(1R)-2-hydroxy-1-phenylethyl]amino}-2-oxo-1,2-dihydro-1,8-naphthyridine-3-carboxylate]",< 100 µM
